Reference: PubChem BioAssay AID2685 (National Center for Advancing Translational Sciences (NCATS), 2010)
This is one part of the list. Shown are side measurements of this screen, not its main read-out; they come without a call. Most of these compounds were active or inconclusive in the main read-out, so they are no random draw. The note in brackets gives the kind of curve behind each potency; many fits are weak.

Assay: qHTS Assay for Lipid Storage Modulators in Drosophila S3 Cells;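 as to cell number change: cells counted by Cell Tracker Red CMTPX staining in the red channel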
Settings: BODIPY lipid droplet fluorescence, 18-24 h; for cell number change: measured here: cell count max response, cells fed with added oleic acid
Summary of the method: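 Drosophila S3 cells loaded with oleic acid (400 uM, as added) and compounds at several concentrations; lipid droplets imaged by 488-nm laser-scanning cytometry, 500–530 nm intensity and object ratio to cell channel. Percent activity normalized to 20 uM Triacsin C.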

[1] = measured here: cell number channel AC50, cells fed with added oleic acid
[2] = measured here: lipid fluorescence (Fed channel) AC50, cells fed with added oleic acid

Structure (SMILES) | cell number change | AC50 [1] | AC50 [2]
C=CCn1c(-c2cccn(Cc3ccccc3)c2=O)n[nH]c1=S | 18.7% | – | –
Cc1cccc2cc(-c3nc4ccc(C(=O)O)cc4[nH]3)c(=O)oc12 | -73.9% | 29.1 µM [falling, single point] | –
Cc1nonc1CC(=O)NC1CC(C)(C)Cc2c1cnn2-c1ccc(F)cc1 (stereo not given) | -5.56% | – | –
CCCc1cc(C(=O)Cc2ccc(F)cc2)c(O)cc1O | -109% | 6.51 µM [falling, partial curve, poor fit] | –
O=C(N/N=C/C(Br)=C/c1ccccc1)NC1CCCCC1 | -48.6% | 22.4 µM [falling, partial curve, poor fit] | 12.6 µM [falling, partial curve, poor fit]
CCOc1ccc(C(=O)NNC(=O)CN2C(=O)NC3(CCCC3)C2=O)cc1 | 1% | – | 29.1 µM [falling, single point]
CN1c2ccccc2C(C)(C)C12C=Nc1c(ccc3ccccc13)O2 (stereo not given) | -72.4% | 10.3 µM [falling, partial curve] | 9.2 µM [falling, partial curve]
CCOC(=O)c1[nH]c2ccc(OC)cc2c1NC(C)=O | – | – | 0.206 µM [rising, partial curve, poor fit]
Cc1c(CCC(=O)NCC(=O)O)c(=O)oc2cc3occ(-c4ccccc4)c3cc12 | – | 2.06 µM [falling, single point] | –
Cc1ccc(-c2nc3cccnc3s2)cc1NS(=O)(=O)c1ccc2c(c1)CCCC2 | – | – | 3.66 µM [rising, partial curve]
CC(C)=NOc1nc(N(C)C)nc(N2CCOCC2)n1 | -14.6% | – | –
COc1ccc(NC(=O)COc2cccc3c2CCNC3=O)cc1 | – | – | 2.59 µM [falling, single point]
Cc1ccc(S(=O)(=O)N(C)C)cc1-n1c(SCC(=O)Nc2ccc(F)cc2Cl)nc2ccccc2c1=O | -50% | 2.06 µM [rising, partial curve] | 0.366 µM [falling, partial curve, poor fit]
O=C(Cn1c(C(F)(F)F)nc2ccccc21)N1CCCC1 | -19.2% | 0.0058 µM [falling, full curve, poor fit] | 6.51 µM [falling, single point]
CC(C)(C)C(=O)Nc1cccc2[nH]ncc12 | 14.7% | 0.0058 µM [rising, full curve, poor fit] | 0.00517 µM [rising, full curve, poor fit]
COC(=O)c1ccccc1NS(C)(=O)=O | -33.8% | 5.8 µM [falling, full curve, poor fit] | 0.0206 µM [falling, full curve, poor fit]
O=S(=O)(Nc1ccc2cn[nH]c2c1)c1ccccc1 | 32.4% | 0.164 µM [rising, full curve, poor fit] | 5.8 µM [rising, partial curve, poor fit]
Cc1csc(SCC(=O)c2ccc(S(=O)(=O)N3CCOCC3)cc2)n1 | -3.7% | – | 0.13 µM [rising, full curve, poor fit]
CCOC(=O)CNC(=S)SC | 5.57% | 6.51 µM [falling, single point] | –

Structure (SMILES) | cell number change | AC50 [1] | AC50 [2]
O=C(CN1CCN(c2ccc(F)cc2)CC1)Nc1ccccc1 | 5.67% | – | –
CC1(C)Cc2c(sc(NC(=O)c3ccc4c(c3)OCCO4)c2C(N)=O)C(C)(C)N1 | -9.54% | – | –
N#C/C(=C\c1ccccc1[N+](=O)[O-])C(=O)NCc1ccccc1 | -6.11% | – | 29.1 µM [falling, single point]
COc1ccc2nc(-c3ccccc3)cc(C(=O)OCC(=O)NC3CC3)c2c1 | -102% | 32.6 µM [falling, partial curve, poor fit] | –
COc1ccc(NC(=O)C2CCCN2S(=O)(=O)c2ccc3c(c2)CCC(=O)N3)c(OC)c1 (stereo not given) | 19.8% | 0.058 µM [rising, full curve, poor fit] | 16.4 µM [rising, single point]
CCOc1cccc(-c2csc(C3COc4ccccc4O3)n2)c1 (stereo not given) | -4.15% | – | 20.6 µM [rising, single point]
NC(=O)/C(=N\O)c1ccccc1 | 14.1% | – | 29.1 µM [rising, single point]
CC1(C)NC(=O)N(CC(=O)N2CCN(c3cccc(Cl)c3)CC2)C1=O | 1.29% | – | 5.17 µM [rising, partial curve, poor fit]
Cc1ccn2c(CNCCCn3cccn3)c(C(=O)N3CCCCCC3)nc2c1 | 12.2% | – | 29.1 µM [rising, single point]
Cc1ccc2oc(=O)n(CC(=O)OCCC(C)C)c2c1 | -19.1% | – | 0.651 µM [falling, full curve, poor fit]
CCc1nc(N2CCC(C)CC2)c2oc3ccccc3c2n1 | -34.6% | 29.1 µM [falling, single point] | 0.103 µM [rising, full curve, poor fit]
COc1cc(CNCc2ccccc2C(F)(F)F)cc(OC)c1 | 36% | 0.0651 µM [rising, full curve, poor fit] | 0.206 µM [rising, full curve, poor fit]
CCN1C(=O)CS/C1=N\S(=O)(=O)c1ccc(C)cc1 | 22.8% | – | 20.6 µM [rising, single point]
N#Cc1c(N)c(C(=O)c2ccc(Cl)cc2)n2c1CCC2 | -22.2% | – | –
S=c1[nH]nc(COc2ccc(Cl)cc2)n1-c1ccccc1 | 12.4% | 0.00411 µM [rising, full curve, poor fit] | –
COc1cc(CCC(=O)OCC(=O)Nc2ccc(F)cc2F)cc(OC)c1OC | -2.78% | – | –
COc1ccccc1N1CCN(C2CCN(S(=O)(=O)c3ccc4ccccc4c3)CC2)CC1 | -31% | 6.51 µM [falling, partial curve, poor fit] | –
CC(C)C(=O)Nc1ccc(C(=O)NNC(=O)NC2CCCCC2)cc1 | -20.7% | – | 2.59 µM [falling, full curve]
CC(Oc1ccc2c3c(c(=O)oc2c1)CCCC3)C(=O)NCCCn1ccnc1 (stereo not given) | 0.298% | – | 20.6 µM [rising, single point]

Some entries already given, limited to AC50 [1] and AC50 [2].
Structure (SMILES)	AC50 [1]	AC50 [2]
CC1(C)NC(=O)N(CC(=O)N2CCN(c3cccc(Cl)c3)CC2)C1=O	–	5.17 µM [rising, partial curve, poor fit]
Cc1ccn2c(CNCCCn3cccn3)c(C(=O)N3CCCCCC3)nc2c1	–	29.1 µM [rising, single point]
